Some of the results follow.
Compound: CN1CCc2c(c3ccccc3n2Cc2ccc(C(=O)NO)cc2)C1 [Tubastatin A]
Assay: log2 fold change, soluble protein after heating vs DMSO (PISA); higher = thermal stabilisation; K562 lysate, 10 uM; active = over 0.2 and 3.5 SD of the protein, either way, in both replicates (recomputed)
Method in brief: (§1)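 Values give the log-two fold change in thermal stability against solvent controls, from duplicates. Crude K562 extract at 1 mg/mL protein, made by dounce homogenisation in PBS pH 7.4 with 1 mM MgCl2, was treated with 10 μM compound for 30 min. After 3 min heating across 48°C-58°C, aliquots were pooled, adjusted to 0.5% NP-40 at 4°C and centrifuged at 21,000xg for 90 min. The supernatant was measured by TMTpro 16plex LC-MS/MS with channel sums equalised.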

Chains of the proteins cited; added tags and fusions are not shown. Lines headed by an entry give the natural chain unless they say otherwise; changes in a name come on top.
UniProt O94992, whole entry, looked up: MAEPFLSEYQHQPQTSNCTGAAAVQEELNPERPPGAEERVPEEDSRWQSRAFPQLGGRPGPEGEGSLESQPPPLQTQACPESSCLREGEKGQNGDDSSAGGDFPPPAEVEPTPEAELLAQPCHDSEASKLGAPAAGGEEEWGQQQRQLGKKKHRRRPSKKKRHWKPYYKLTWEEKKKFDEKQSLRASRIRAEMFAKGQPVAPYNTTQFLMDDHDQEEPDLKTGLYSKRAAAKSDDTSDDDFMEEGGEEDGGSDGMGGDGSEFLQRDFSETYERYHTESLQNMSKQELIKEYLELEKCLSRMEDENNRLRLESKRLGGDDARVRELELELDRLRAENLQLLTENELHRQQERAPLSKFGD
UniProt O43390: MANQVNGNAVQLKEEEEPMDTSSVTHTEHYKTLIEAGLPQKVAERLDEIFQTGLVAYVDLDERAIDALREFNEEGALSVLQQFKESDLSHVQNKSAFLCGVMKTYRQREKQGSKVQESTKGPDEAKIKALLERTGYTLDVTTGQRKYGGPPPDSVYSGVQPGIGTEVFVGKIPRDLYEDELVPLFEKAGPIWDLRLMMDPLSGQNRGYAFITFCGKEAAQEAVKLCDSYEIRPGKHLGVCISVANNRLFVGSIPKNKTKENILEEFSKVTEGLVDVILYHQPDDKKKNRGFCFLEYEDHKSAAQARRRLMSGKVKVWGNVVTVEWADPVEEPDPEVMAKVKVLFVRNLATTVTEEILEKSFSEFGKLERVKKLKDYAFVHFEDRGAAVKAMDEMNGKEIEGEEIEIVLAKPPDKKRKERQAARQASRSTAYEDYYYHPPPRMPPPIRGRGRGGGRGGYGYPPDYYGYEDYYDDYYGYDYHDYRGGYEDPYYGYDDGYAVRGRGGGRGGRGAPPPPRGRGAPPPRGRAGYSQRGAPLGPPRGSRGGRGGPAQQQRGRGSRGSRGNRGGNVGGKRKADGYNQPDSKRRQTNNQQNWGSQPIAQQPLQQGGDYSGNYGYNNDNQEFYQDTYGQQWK
UniProt P05114: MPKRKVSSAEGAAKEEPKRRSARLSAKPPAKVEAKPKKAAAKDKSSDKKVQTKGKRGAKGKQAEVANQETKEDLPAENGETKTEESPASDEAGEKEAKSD
UniProt P35914: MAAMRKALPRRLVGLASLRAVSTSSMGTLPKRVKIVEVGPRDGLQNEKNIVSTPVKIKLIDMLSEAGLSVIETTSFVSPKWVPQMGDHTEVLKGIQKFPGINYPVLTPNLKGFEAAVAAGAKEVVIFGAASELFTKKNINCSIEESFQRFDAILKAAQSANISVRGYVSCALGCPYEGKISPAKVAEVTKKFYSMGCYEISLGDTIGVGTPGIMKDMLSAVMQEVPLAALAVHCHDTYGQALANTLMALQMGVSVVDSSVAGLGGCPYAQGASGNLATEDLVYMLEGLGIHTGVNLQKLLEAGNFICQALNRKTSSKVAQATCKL
UniProt Q8TDG4: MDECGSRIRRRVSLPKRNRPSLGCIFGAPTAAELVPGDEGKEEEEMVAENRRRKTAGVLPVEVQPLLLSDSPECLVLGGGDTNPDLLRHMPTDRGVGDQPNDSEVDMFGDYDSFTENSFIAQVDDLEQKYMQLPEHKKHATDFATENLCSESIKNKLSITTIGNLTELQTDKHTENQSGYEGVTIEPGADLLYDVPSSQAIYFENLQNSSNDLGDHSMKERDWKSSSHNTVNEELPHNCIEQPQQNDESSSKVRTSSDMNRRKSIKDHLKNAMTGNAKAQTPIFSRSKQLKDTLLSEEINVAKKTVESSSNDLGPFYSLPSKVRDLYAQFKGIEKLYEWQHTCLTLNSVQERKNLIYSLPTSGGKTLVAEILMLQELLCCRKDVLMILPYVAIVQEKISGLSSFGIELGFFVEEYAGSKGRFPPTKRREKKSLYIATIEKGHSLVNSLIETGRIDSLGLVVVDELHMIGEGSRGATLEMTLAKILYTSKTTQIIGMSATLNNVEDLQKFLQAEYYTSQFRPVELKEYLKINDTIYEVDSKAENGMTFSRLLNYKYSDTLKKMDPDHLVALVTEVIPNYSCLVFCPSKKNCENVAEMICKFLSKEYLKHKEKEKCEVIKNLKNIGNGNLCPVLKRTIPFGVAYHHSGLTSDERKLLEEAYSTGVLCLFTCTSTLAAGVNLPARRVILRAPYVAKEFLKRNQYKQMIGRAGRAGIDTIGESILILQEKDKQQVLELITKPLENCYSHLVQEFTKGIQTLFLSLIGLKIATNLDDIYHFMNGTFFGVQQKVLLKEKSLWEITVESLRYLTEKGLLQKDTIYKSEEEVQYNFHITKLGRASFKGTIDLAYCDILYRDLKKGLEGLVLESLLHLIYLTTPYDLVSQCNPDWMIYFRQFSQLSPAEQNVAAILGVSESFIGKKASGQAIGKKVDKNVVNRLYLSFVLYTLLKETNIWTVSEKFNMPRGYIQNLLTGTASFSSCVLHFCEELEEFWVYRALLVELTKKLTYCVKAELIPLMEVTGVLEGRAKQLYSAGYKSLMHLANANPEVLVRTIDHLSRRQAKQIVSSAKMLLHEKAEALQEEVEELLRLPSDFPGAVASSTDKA
UniProt Q5SSJ5: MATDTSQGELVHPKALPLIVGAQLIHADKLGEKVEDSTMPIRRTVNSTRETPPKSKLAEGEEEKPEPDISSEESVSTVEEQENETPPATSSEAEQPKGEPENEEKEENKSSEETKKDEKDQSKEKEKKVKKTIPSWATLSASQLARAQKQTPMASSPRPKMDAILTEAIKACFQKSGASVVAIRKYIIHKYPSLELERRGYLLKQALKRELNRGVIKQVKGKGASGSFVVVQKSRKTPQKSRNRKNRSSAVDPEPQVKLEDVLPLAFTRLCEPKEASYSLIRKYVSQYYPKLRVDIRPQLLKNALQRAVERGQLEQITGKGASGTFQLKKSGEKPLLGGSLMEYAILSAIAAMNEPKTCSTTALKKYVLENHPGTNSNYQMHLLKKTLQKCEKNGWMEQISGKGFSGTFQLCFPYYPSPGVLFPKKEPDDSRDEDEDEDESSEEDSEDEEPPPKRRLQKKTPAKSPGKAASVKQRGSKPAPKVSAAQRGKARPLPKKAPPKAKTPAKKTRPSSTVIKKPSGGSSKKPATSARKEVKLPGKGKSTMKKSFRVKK
UniProt Q9BQS7: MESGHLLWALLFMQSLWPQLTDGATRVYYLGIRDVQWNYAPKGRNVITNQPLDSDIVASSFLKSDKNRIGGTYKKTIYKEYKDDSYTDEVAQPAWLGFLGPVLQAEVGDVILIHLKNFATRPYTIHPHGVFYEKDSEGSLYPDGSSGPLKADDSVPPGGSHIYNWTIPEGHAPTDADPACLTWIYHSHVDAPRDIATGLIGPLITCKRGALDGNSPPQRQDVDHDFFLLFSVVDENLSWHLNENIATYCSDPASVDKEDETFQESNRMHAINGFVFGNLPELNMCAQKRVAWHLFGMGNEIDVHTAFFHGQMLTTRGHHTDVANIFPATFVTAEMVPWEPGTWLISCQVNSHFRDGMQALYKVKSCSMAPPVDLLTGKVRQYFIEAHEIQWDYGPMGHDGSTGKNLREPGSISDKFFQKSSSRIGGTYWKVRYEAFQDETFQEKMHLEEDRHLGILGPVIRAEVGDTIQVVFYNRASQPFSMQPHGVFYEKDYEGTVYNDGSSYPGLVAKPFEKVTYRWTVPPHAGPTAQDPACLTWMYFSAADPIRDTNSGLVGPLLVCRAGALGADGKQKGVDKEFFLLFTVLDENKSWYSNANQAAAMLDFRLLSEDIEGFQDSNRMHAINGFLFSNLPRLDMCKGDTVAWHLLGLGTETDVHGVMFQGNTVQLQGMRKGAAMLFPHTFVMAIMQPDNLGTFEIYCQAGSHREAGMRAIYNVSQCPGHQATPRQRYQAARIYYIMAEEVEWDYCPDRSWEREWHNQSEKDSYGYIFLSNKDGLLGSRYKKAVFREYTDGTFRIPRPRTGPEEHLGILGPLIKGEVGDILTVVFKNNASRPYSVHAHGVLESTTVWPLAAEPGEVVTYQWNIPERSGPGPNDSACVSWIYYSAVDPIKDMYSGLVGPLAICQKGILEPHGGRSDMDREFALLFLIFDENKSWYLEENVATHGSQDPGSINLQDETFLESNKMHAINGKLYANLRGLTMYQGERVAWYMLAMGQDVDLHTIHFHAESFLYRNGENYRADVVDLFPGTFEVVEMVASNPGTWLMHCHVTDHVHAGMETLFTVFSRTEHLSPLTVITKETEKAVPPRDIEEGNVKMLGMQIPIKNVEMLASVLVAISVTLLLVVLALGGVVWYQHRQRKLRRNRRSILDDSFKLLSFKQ
UniProt P00492: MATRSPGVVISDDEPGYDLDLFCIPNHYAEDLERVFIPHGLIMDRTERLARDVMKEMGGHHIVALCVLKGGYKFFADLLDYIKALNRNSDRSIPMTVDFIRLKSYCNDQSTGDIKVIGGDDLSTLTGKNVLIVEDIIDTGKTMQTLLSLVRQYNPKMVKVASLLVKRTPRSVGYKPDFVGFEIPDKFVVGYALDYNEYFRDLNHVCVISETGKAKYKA
UniProt Q9BUJ2: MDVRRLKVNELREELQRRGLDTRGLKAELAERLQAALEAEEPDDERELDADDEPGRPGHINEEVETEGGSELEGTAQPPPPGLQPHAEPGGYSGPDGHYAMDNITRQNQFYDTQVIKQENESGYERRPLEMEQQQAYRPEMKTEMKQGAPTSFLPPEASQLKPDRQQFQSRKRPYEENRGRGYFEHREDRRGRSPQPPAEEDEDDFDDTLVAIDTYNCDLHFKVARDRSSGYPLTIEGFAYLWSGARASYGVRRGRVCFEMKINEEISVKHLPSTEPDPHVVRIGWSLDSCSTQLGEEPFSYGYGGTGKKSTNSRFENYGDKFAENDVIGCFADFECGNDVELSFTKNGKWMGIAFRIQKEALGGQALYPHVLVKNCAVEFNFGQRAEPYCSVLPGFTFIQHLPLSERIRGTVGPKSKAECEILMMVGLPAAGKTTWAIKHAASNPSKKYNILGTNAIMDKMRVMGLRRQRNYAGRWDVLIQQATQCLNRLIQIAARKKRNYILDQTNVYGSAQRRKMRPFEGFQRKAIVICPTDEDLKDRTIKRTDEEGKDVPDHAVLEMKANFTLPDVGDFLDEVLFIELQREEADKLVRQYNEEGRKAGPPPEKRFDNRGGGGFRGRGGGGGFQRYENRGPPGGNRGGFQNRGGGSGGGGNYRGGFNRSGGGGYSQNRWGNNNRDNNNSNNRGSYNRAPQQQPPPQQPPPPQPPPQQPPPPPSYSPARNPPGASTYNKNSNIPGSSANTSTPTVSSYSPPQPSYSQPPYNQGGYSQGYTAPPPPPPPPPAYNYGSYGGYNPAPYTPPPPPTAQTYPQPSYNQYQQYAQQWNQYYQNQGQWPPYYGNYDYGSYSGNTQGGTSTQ
UniProt P31943: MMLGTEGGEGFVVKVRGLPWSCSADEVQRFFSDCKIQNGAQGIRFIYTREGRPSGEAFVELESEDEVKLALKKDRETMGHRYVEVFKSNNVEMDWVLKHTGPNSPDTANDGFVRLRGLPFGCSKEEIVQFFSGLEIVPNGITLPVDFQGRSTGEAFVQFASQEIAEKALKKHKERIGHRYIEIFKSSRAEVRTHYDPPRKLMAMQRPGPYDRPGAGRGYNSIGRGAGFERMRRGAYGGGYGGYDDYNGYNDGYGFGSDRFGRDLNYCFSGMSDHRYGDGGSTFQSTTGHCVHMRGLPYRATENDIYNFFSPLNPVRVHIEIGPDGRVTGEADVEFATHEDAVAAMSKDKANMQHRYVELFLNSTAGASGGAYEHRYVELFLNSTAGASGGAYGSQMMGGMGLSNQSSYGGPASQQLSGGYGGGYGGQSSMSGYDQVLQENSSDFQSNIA
UniProt Q8NBQ5: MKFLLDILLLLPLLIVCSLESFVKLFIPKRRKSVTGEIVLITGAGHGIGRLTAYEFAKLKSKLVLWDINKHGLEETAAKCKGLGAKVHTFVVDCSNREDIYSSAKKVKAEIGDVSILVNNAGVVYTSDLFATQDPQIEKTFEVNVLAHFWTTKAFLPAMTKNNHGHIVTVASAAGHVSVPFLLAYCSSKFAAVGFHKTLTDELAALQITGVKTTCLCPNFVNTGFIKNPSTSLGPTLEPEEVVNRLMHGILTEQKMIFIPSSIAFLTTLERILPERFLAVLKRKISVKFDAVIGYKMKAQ
UniProt Q00613: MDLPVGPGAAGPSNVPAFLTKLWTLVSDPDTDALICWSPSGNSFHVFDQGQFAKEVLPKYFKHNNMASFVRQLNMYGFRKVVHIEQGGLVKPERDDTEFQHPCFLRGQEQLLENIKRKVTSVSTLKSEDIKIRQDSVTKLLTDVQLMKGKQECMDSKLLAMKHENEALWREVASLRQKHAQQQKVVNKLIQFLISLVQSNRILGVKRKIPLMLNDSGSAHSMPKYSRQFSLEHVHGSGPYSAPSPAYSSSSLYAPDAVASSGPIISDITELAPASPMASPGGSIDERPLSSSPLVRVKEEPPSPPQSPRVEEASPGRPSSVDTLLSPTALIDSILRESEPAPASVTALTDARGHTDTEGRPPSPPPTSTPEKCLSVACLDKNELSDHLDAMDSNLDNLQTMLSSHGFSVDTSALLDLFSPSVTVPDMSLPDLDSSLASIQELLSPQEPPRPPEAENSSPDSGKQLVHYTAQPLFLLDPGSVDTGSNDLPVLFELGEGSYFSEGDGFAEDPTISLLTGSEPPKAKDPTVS

Target	log2 fold change
HSPA14 (UniProt Q0VDF9)	inactive: -0.081
HEXIM1 (UniProt O94992)	inactive: 0.014
HNRNPR (UniProt O43390)	inactive: 0
HINT3 (UniProt Q9NQE9)	inactive: 0.025
HMGN1 (UniProt P05114)	inactive: 0.107
HNRNPDL (UniProt O14979)	inactive: -0.017
HEMGN (UniProt Q9BXL5)	inactive: 0.046
HGF (UniProt P14210)	inactive: 0.162
HMGCL (UniProt P35914)	inactive: -0.012
HSPA13 (UniProt P48723)	inactive: -0.059
HNRNPA1 (UniProt P09651)	inactive: 0.011
HELQ (UniProt Q8TDG4)	inactive: -0.016
HIF1AN (UniProt Q9NWT6)	inactive: 0.088
HM13 isoform 2 (UniProt Q8TCT9)	inactive: 0.037
HSD17B10 (UniProt Q99714)	inactive: -0.077
HMG20A (UniProt Q9NP66)	inactive: 0.003
HP1BP3 (UniProt Q5SSJ5)	inactive: -0.032

Target	log2 fold change
HELZ (UniProt P42694)	inactive: -0.085
HEPH isoform 3 (UniProt Q9BQS7)	inactive: 0.06
HPRT1 (UniProt P00492)	inactive: 0.023
HIKESHI (UniProt Q53FT3)	inactive: -0.02
HNRNPUL1 (UniProt Q9BUJ2)	inactive: 0.01
HNRNPA1 (UniProt H0YH80)	inactive: -0.041
HNRNPA0 (UniProt Q13151)	inactive: -0.1
HNRNPH1 (UniProt P31943)	inactive: -0.197
HSD17B11 (UniProt Q8NBQ5)	inactive: 0.022
HERC4 (UniProt Q5GLZ8)	inactive: 0.014
HSDL1 (UniProt Q3SXM5)	inactive: 0.095
HMGB1 (UniProt P09429)	inactive: 0.059
HSF1 (UniProt Q00613)	inactive: -0.025
HECTD3 (UniProt Q5T447)	inactive: -0.047
HSBP1 (UniProt O75506)	inactive: -0.111
HNRNPAB isoform 3 (UniProt Q99729)	inactive: 0.021

Compound: CNC(=O)C1=CC=CC=C1NC2=NC(=NC=C2Cl)NC3=C(C=C(C=C3)N4CCOCC4)OC
Assay: as above
Method in brief: as §1

Target	log2 fold change
HSPA14 (UniProt Q0VDF9)	inactive: 0.01
HEXIM1 (UniProt O94992)	inactive: 0.015
HNRNPR (UniProt O43390)	inactive: -0.002
HINT3 (UniProt Q9NQE9)	inactive: 0.023
HMGN1 (UniProt P05114)	inactive: -0.017
HNRNPDL (UniProt O14979)	inactive: 0.018
HEMGN (UniProt Q9BXL5)	inactive: 0.015
HGF (UniProt P14210)	inactive: 0.039
HMGCL (UniProt P35914)	inactive: -0.015
HSPA13 (UniProt P48723)	inactive: 0.019
HNRNPA1 (UniProt P09651)	inactive: 0.003
HELQ (UniProt Q8TDG4)	inactive: 0.045
HIF1AN (UniProt Q9NWT6)	inactive: -0.055
HM13 isoform 2 (UniProt Q8TCT9)	inactive: 0.016
HSD17B10 (UniProt Q99714)	inactive: 0.004
HMG20A (UniProt Q9NP66)	inactive: -0.025
HP1BP3 (UniProt Q5SSJ5)	inactive: -0.045

Target	log2 fold change
HELZ (UniProt P42694)	inactive: 0.034
HEPH isoform 3 (UniProt Q9BQS7)	inactive: -0.004
HPRT1 (UniProt P00492)	inactive: -0.018
HIKESHI (UniProt Q53FT3)	inactive: 0.015
HNRNPUL1 (UniProt Q9BUJ2)	inactive: -0.011
HNRNPA1 (UniProt H0YH80)	inactive: -0.003
HNRNPA0 (UniProt Q13151)	inactive: 0.094
HNRNPH1 (UniProt P31943)	inactive: 0.034
HSD17B11 (UniProt Q8NBQ5)	inactive: -0.019
HERC4 (UniProt Q5GLZ8)	inactive: 0.017
HSDL1 (UniProt Q3SXM5)	inactive: 0.071
HMGB1 (UniProt P09429)	inactive: 0.01
HSF1 (UniProt Q00613)	inactive: 0.044
HECTD3 (UniProt Q5T447)	inactive: 0.02
HSBP1 (UniProt O75506)	inactive: -0.209
HNRNPAB isoform 3 (UniProt Q99729)	inactive: -0.018

Compound: CNC(=O)c1ccc(Nc2ncc(C(F)(F)F)c(NCc3nccnc3N(C)S(C)(=O)=O)n2)cc1 [defactinib]
Assay: as above
Method in brief: as §1

Target	log2 fold change
HSPA14 (UniProt Q0VDF9)	inactive: 0.012
HEXIM1 (UniProt O94992)	inactive: 0.035
HNRNPR (UniProt O43390)	inactive: 0.048
HINT3 (UniProt Q9NQE9)	inactive: 0.021
HMGN1 (UniProt P05114)	inactive: -0.06
HNRNPDL (UniProt O14979)	inactive: -0.006
HEMGN (UniProt Q9BXL5)	inactive: -0.009
HMGCL (UniProt P35914)	inactive: 0.059
HSPA13 (UniProt P48723)	inactive: -0.028
HNRNPA1 (UniProt P09651)	inactive: -0.01
HELQ (UniProt Q8TDG4)	inactive: 0.037
HIF1AN (UniProt Q9NWT6)	inactive: 0.094
HM13 isoform 2 (UniProt Q8TCT9)	inactive: 0.048
HSD17B10 (UniProt Q99714)	inactive: -0.029
HMG20A (UniProt Q9NP66)	inactive: -0.023
HP1BP3 (UniProt Q5SSJ5)	inactive: -0.025

Target	log2 fold change
HELZ (UniProt P42694)	inactive: 0.041
HEPH isoform 3 (UniProt Q9BQS7)	inactive: 0.004
HPRT1 (UniProt P00492)	inactive: -0.012
HIKESHI (UniProt Q53FT3)	inactive: 0.053
HNRNPUL1 (UniProt Q9BUJ2)	inactive: 0.002
HNRNPA1 (UniProt H0YH80)	inactive: -0.045
HNRNPA0 (UniProt Q13151)	inactive: -0.009
HNRNPH1 (UniProt P31943)	inactive: -0.022
HSD17B11 (UniProt Q8NBQ5)	inactive: 0.014
HERC4 (UniProt Q5GLZ8)	inactive: 0.007
HSDL1 (UniProt Q3SXM5)	inactive: 0.006
HMGB1 (UniProt P09429)	inactive: 0.074
HSF1 (UniProt Q00613)	inactive: 0.008
HECTD3 (UniProt Q5T447)	inactive: 0.045
HSBP1 (UniProt O75506)	inactive: 0.079
HNRNPAB isoform 3 (UniProt Q99729)	inactive: 0.017
